{"source": "paper PMC8573169", "about": "“Structural basis for the inhibition of the Bacillus subtilis c-di-AMP cyclase CdaA by the phosphoglucomutase GlmM” (The Journal of Biological Chemistry, 2021)", "binders": {"B1": {"name": "B. subtilis GlmM D151A/E154A alanine substitution variant, His-tagged (enzyme, UniProt O34824 1-448)", "chain": "MGKYFGTDGVRGVANSELTPELAFKVGRFGGYVLTKDKQRPKVLIGRDTRISGHMLEGALVAGLLSIGAEVMRLGVISTPGVSYLTKAMDAEAGVMISASHNPVQDNGIKFFGGDGFKLSDEQEAEIERLMDEPEDKLPRPVGADLGLVNAYFAGGQKYLQFLKQTADEDFTGIHVALDCANGATSSLATHLFADLDADVSTMGTSPNGLNINDGVGSTHPEALSAFVKEKNADLGLAFDGDGDRLIAVDEKGNIVDGDQIMYICSKHLKSEGRLKDDTVVSTVMSNLGFYKALEKEGIKSVQTAVGDRYVVEAMKKDGYNVGGEQSGHLIFLDYNTTGDGLLSAIMLMNTLKATGKPLSELAAEMQKFPQLLVNVRVTDKYKVEENEKVKAVISEVEKEMNGDGRILVRPSGTEPLVRVMAEAKTKELCDEYVNRIVEVVRSEMGLE"}}, "target": "T1, B. subtilis CdaA catalytic domain (CdaACD), His-tagged (B. subtilis) (UniProt Q45589)", "T1 sequence": "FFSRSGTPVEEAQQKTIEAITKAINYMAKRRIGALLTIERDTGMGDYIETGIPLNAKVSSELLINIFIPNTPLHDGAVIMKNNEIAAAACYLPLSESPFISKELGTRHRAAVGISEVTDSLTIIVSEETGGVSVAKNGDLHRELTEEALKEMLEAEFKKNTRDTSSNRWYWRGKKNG", "assay": "SEC; lysates of the two E. coli strains mixed after the French press step, Ni-NTA affinity chromatography (both proteins His-tagged), then preparative Superdex 200 HiLoad 16/60 in 30 mM Tris pH 7.5, 150 mM NaCl; peak fractions on SDS-PAGE with Coomassie staining", "note": "No constants are given. Whether binding was seen depends on the method and setting. Some entries that bind do so weakly or less than the wild type. Where a sequence is shown, tags or fusion partners need not be part of it."}
{"binder": "B1", "values": [{"measurement": "binding", "value": "binds"}]}
